Four substances from US4612366A (Merck & Co., Inc., priority 1985, dated 1986) can be followed below.

This data set can be described thus: general procedure: Boc solid-phase peptide synthesis; OCH2-phi-resin. To be noted: late stage modification step.

With “Cyclo [Phe-Pro(γ-t-OTs)-Phe-D-Trp-Lys-(2-Cl-CBZ)-Thr-(BZl)]”, the “final HPLC purity” value is listed as 98%. “Cyclo(Phe-Pro(γ-cis-OAc)-Phe-D-Trp-Lys-Thr)”: the “final HPLC purity” value came out at 90%. Regarding “Cyclo(Phe-Pro(γ-cis-OH)-Phe-D-Trp-Lys-Thr)”, the “final HPLC purity” value is recorded as 94%.

“Cyclo[Phe-Pro(γ-t-OAC)-Phe-D-Trp-Lys(2-Cl-CBZ)-Thr-(BZl)]”: the “crude HPLC purity” value is on record as 90%.
